Measured values published in publication PMC12040169 (PLOS Biology, 2025).
Some of the results follow.

Tested on: T1, CTL2-GFP (C. trachomatis L2/434/Bu, GFP-expressing)
T1 construct: L2/434/Bu, GFP-expressing
Set-up: species or system HeLa; Intracellular C. trachomatis growth in HeLa cells, bulk GFP fluorescence relative to DMSO
Settings: bulk GFP, single well; 28.5 h, 10 µM; inhibitor

Row | Structure (SMILES) | % of control remaining [%]
1 | Cc1cn(CC(=O)N2CCC3(CCCNC3)C2)c(=O)[nH]c1=O (centres unmarked) [CBK153231C] | 114.715
2 | O=C1OCCN1S(=O)(=O)c1ccc(CN2CCN(Cc3ccc(S(=O)(=O)N4CCOC4=O)cc3)CC2)cc1 [CBK024729] | 130.643
3 | O=C(COc1ccc(F)cc1)N1CCN(c2ncccn2)CC1 [CBK144499] | 117.868
4 | O=C(CSCc1c(F)cccc1Cl)NCc1ccncc1 [CBK268381] | 137.724
5 | CS(=O)(=O)N1CCc2cc(-c3csc(C4CC4)n3)ccc21 [CBK306347] | 153.087
6 | CCCCc1ccc(NC(=N)Nc2nc(C)cc(C)n2)cc1 [CBK262967] | 49.2012
7 | c1ccc(C(NCc2cncs2)C2CCCC2)cc1 (centres unmarked) [CBK304812] | 107.821
8 | COc1ccc(-c2ccc3ccc(=O)[nH]c3n2)cc1C [CBK073712] | 140.526
9 | Cc1nc(C)c(C(=O)NCC2CCCOC2)s1 (centres unmarked) [CBK282194] | 104.211
10 | Cc1onc(-c2ccccc2)c1C(=O)NC(=S)Nc1sc2c(c1C#N)CCC2 [CBK267492] | 153.586
11 | Cc1cc(SCC(C)C)n2ncnc2n1 [CBK261808] | 102.232
12 | CC(C)(CNC(=O)Cn1cc(C(=O)NC2CCCCC2)ccc1=O)c1cccc(F)c1 [CBK286110] | 117.093
13 | c1ccn(CCOc2nccnc2-c2ccsc2)c1 [CBK106772] | 120.814
14 | COc1ccc(CCC(=O)c2cnc3sc4c(n23)CCCCC4)cc1 [CBK016849] | 103.143
15 | CC(=O)Nc1cccc(Oc2nccnc2-c2cc3ccccc3s2)c1 [CBK106784] | 100.937
16 | CS(=O)(=O)Nc1cc2cccnc2nc1-c1ccccc1 [CBK085689] | 94.6761
17 | Clc1ccc(-n2c(SCc3nc4ccccc4[nH]3)nnc2-c2ccncc2)cc1 [CBK267557] | 161.282
18 | O=C1CC(c2cc(F)ccc2F)c2c(-c3ccc(Cl)cc3)n[nH]c2N1 (centres unmarked) [CBK288000] | 103.686
19 | CCN(CCn1cccn1)c1nc2nonc2nc1N(C)C [CBK306630] | 127.447
20 | CC(=O)N1CCC2(C/C=C/C[C@H]3CN(C(=O)C4CCC4)CC[C@H]3NC(=O)CNC2=O)CC1 [CBK292108] | 112.11
21 | COC(=O)c1sc2cc(NC(=S)NNC(=O)c3ccoc3C)ccc2c1Cl [CBK266877] | 164.383
22 | N#Cc1sc2nc(-c3ccncc3)ccc2c1N [CBK288547] | 130.634
23 | Cc1cc(C)c(S(=O)(=O)N2CCC(C(=O)Nc3ccc(C(N)=O)cc3)CC2)c(C)c1 [CBK266424] | 168.13
24 | CC1CCN(S(=O)(=O)c2ccc(NC(=O)CN3CCOCC3)cc2)CC1 [CBK268339] | 157.854
25 | COc1ccc(CN[C@H]2[C@H](O)[C@@H](N3CCN(C(C)=O)CC3)[C@@H]3OC[C@H]2O3)cc1 [CBK288808] | 117.688

Row | Structure (SMILES) | % of control remaining [%]
26 | O=C(NC1CCCCC1)N1Cc2nc[nH]c2C[C@H]1c1nc(-c2ccc3c(c2)OCO3)no1 [CBK289000] | 126.345
27 | O=C(O)C1CCN(c2ncnc3sc4c(c23)CCC4)CC1 [CBK268326] | 126.194
28 | NC(=O)c1c(NC(=O)c2ccc(-c3ccccc3)cc2)sc2c1CCC2 [CBK265747] | 150.677
29 | O=C(Oc1ccccc1O)c1cccc(Cl)c1 [CBK090130] | 57.2094
30 | CC1CCCN(C(=O)N(C)C)C1 (centres unmarked) [CBK023175] | 135.134
31 | Sc1nnc(Cc2cccc3ccccc23)n1-c1ccccc1 [CBK265052] | 88.5217
32 | O=C(c1cc(F)cc(F)c1)N1CCn2c(nnc2C2CC2)C1 [CBK283772] | 120.908
33 | CCOC(=O)c1sc(-c2ccc3c(c2)OCO3)nc1O [CBK078565] | 160.868
34 | CCc1nn(CC(=O)NC(C)(C)C)c(=O)c2cc3sc(C)cc3n12 [CBK284124] | 108.709
35 | COc1ccc(-c2nc(-c3ccc(C(=O)N4CCOCC4)cc3)cnc2N)cc1 [CBK116509] | 124.584
36 | CCOC(=O)c1ccc(-c2ccc(C(=O)Nc3ccc(-c4nc5ccccc5o4)c(O)c3)o2)cc1 [CBK263428] | 133.669
37 | COc1ccc(-c2cc(-c3ccccc3)nc(N/N=C/c3ccc(O)c(C)c3O)n2)cc1 [CBK261721] | 104.217
38 | CCc1ccc2occ(CC(=O)Nc3ccc(C(=O)OC)cc3)c2c1 [CBK268318] | 95.2787
39 | CC(C)c1ccc(NC(=O)O[C@@H]2CO[C@H]3[C@@H]2OC[C@@H]3NC(=O)c2cncnc2)cc1 [CBK289480] | 108.694
40 | CSc1nc(NC(=O)C2CCCO2)cc(N2CCNCC2)n1 (centres unmarked) [CBK026740T] | 134.615
41 | CCOC(=O)N1CCC(Nc2nc3ccccc3nc2OCc2cc(C)on2)CC1 [CBK171825] | 152.854
42 | O=C1Nc2ccc([N+](=O)[O-])cc2C1(O)N1CCCCC1 (centres unmarked) [CBK262496] | 121.187
43 | O=C(Nc1ccc(F)cc1)c1ccc(NS(=O)(=O)Cc2ccccc2[N+](=O)[O-])cc1 [CBK050405] | 104.239
44 | Cc1ccc(C2(CN3CCN(Cc4ncc[nH]4)CC3)CC2)cc1 [CBK283306] | 77.6431
45 | CC(NC(=O)COc1ccc(Cl)cc1Cl)C(=O)O (centres unmarked) [CBK261425] | 100
46 | CCOC(=O)[C@H]1CC[C@]2(CC1)CNC(=O)c1cc(Cl)ccc1O2 [CBK284849] | 110.08
47 | O=C(c1ncoc1-c1ccc(F)cc1)N1CCN2CCCCC2C1 (centres unmarked) [CBK282400] | 133.322
48 | CN(C)S(=O)(=O)N(CC(=O)Nc1cccnc1)c1ccccc1 [CBK267958] | 80.0065
49 | CN(c1ccc(C(=O)Nc2ccc(S(=O)(=O)N3CCCC3)cc2)cc1)S(=O)(=O)c1ccccc1 [CBK266896] | 69.0828
50 | COc1ccc(C(=O)OC(C)(C)C)c(-c2cncc(N3CCN(CCO)CC3)n2)c1 [CBK037239] | 225.995

Individual results from the list:
Entry of CC(NC(=O)COc1ccc(Cl)cc1Cl)C(=O)O (centres unmarked) [CBK261425] under % of control remaining [%]: 100
Entry of CS(=O)(=O)N1CCc2cc(-c3csc(C4CC4)n3)ccc21 [CBK306347] under % of control remaining [%]: 153.087
Entry of Cc1onc(-c2ccccc2)c1C(=O)NC(=S)Nc1sc2c(c1C#N)CCC2 [CBK267492] under % of control remaining [%]: 153.586
